Literature values, collected in patent US6933309B2, “Halogenobenzyl aminopropionic acid derivatives” (Toaeiyo Ltd., priority 2002, dated 2005).
At least one structure is not confirmed: it was looked up by name or label, or the drawing left a doubt.

Tested on: diabetic patients complicated with hyperlipidemia
Details: cited from earlier work

CC(C)OC(=O)C(C)(C)Oc1ccc(C(=O)c2ccc(Cl)cc2)cc1 [fenofibrate]
effect of lowering the blood glucose level of a diabetic patient (diabetic patient, well known): insufficient effect
decrease in average minimum lumen diameter and increase in constriction degree (coronary artery lesion) (oral, diabetic patients complicated with hyperlipidemia, blood glucose level sufficiently controlled): significantly suppressed
